Laboratory results taken from patent US12029814B1, “Formulation of ear drops and methods for delivery thereof for treating upper respiratory infections” (priority 2023, dated 2024).
At least one structure is not confirmed: it was looked up by name or label, or the drawing left a doubt.

Experiments:
Format in all cases: cell-based
[1] = test system: SARS-COV-2 BA.1
[2] = test system: SARS-COV-2 BA.2
[3] = test system: SARS-COV-2 BA.5
[4] = test system: SARS-COV-2 XBB
[5] = test system: SARS-COV-2 XBB1.5
[6] = test system: original WA1 viral strain of SARS-COV-2; assay: in vitro infectivity of epithelial cells expressing ACE-2 and TMPRSS-2, virus-NP protein in culture media; details: MOI 0.01

CCC(CC)COC(=O)[C@H](C)N[P@](=O)(OC[C@H]1O[C@@](C#N)(c2ccc3c(N)ncnn23)[C@H](O)[C@@H]1O)Oc1ccccc1 [RMD, remdesivir]
cellular protection against SARS-COV-2 BA.1 infection [1]: protected cells | replication of SARS-COV-2 BA.2 [2]: significantly suppressed replication | replication of SARS-COV-2 BA.5 [3]: significantly suppressed replication | replication of SARS-COV-2 XBB [4]: significantly suppressed replication | replication of SARS-COV-2 XBB1.5 [5]: significantly suppressed replication | SARS-COV-2 infection, original WA1 viral strain [6]: markedly suppressed
